The record followed here is article PMC3661532.

Experiment [1] has as its target T1, Kindlin 2 (Fermitin family homolog 2) (mouse (endogenous in C2C12)) (UniProt Q8CIB5).
T1 sequence: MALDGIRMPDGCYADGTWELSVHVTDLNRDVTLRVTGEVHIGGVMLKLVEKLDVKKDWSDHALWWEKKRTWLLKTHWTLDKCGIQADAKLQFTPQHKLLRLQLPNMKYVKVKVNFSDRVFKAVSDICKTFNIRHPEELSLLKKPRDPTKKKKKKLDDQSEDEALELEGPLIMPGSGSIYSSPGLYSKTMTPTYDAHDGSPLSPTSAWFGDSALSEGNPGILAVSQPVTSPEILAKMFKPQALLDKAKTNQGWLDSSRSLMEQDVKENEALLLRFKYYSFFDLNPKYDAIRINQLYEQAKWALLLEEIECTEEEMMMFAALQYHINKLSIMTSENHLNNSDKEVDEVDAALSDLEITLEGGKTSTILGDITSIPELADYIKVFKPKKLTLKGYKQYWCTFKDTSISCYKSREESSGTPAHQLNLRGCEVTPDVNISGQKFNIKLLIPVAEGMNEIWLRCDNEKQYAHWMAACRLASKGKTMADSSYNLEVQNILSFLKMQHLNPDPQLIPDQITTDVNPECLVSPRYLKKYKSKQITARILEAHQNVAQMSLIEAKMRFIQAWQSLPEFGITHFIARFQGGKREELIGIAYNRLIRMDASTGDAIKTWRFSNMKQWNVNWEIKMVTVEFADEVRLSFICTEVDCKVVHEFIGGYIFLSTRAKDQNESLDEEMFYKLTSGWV
In words: co-IP; total cell lysates of differentiated C2C12 cells (DM day 3); antibody 4 h at 4°C, protein A/G-Sepharose overnight, three washes with NP40 buffer; Western blot. (Immunoblotting shows a protein as a band on a membrane.)

The target of experiment [2] is T1, Kindlin 2 (Fermitin family homolog 2) (mouse (endogenous in C2C12)). In words: co-IP; nuclear lysates of differentiated C2C12 cells (DM day 3); immunoprecipitation with anti-TCF4, anti-Kindlin 2 or anti-active β-catenin; Western blot.
Experiment [3] concerns the target T2, TCF4 (mouse (endogenous in C2C12)), Q924A0.
T2 chain: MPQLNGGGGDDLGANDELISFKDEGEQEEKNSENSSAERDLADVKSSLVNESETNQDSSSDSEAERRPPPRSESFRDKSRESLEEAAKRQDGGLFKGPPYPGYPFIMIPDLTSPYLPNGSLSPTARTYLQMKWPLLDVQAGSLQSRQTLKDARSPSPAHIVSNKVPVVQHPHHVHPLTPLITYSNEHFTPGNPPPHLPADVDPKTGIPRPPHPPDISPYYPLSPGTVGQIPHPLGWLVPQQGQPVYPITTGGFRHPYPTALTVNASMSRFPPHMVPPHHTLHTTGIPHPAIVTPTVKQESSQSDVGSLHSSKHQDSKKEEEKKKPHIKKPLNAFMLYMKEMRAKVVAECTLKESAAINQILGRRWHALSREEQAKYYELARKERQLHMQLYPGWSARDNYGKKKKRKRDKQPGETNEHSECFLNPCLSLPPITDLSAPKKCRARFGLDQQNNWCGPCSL
Described as above. The conditions noted are these: remark: other sources report otherwise.

No constants are given. Whether binding was seen depends on the method and setting. In cells and extracts the contact can be indirect. Some entries that bind do so weakly or less than the wild type.

β-catenin (from UniProt Q02248 1-781): the binding result in experiment [1] is reported as “binds”.
With “active β-catenin (from UniProt Q02248 1-781)”, the binding entry in experiment [1] and in experiment [2] was “binds” in each case.
As to TCF4 (from UniProt Q924A0 1-459), the binding entry in experiment [2] was “binds”.

B1: active β-catenin, Q02248 1-781 (protein)
chain: MATQADLMELDMAMEPDRKAAVSHWQQQSYLDSGIHSGATTTAPSLSGKGNPEEEDVDTSQVLYEWEQGFSQSFTQEQVADIDGQYAMTRAQRVRAAMFPETLDEGMQIPSTQFDAAHPTNVQRLAEPSQMLKHAVVNLINYQDDAELATRAIPELTKLLNDEDQVVVNKAAVMVHQLSKKEASRHAIMRSPQMVSAIVRTMQNTNDVETARCTAGTLHNLSHHREGLLAIFKSGGIPALVKMLGSPVDSVLFYAITTLHNLLLHQEGAKMAVRLAGGLQKMVALLNKTNVKFLAITTDCLQILAYGNQESKLIILASGGPQALVNIMRTYTYEKLLWTTSRVLKVLSVCSSNKPAIVEAGGMQALGLHLTDPSQRLVQNCLWTLRNLSDAATKQEGMEGLLGTLVQLLGSDDINVVTCAAGILSNLTCNNYKNKMMVCQVGGIEALVRTVLRAGDREDITEPAICALRHLTSRHQEAEMAQNAVRLHYGLPVVVKLLHPPSHWPLIKATVGLIRNLALCPANHAPLREQGAIPRLVQLLVRAHQDTQRRTSMGGTQQQFVEGVRMEEIVEGCTGALHILARDVHNRIVIRGLNTIPLFVQLLYSPIENIQRVAAGVLCELAQDKEAAEAIEAEGATAPLTELLHSRNEGVATYAAAVLFRMSEDKPQDYKKRLSVELTSSLFRTEPMAWNETADLGLDIGAQGEALGYRQDDPSYRSFHSGGYGQDALGMDPMMEHEMGGHHPGADYPVDGLPDLGHAQDLMDGLPPGDSNQLAWFDTDL
On to B1, for which, in experiment [3], the binding entry is “binds”.
